# Source: the supplement of paper PMC10338343
# ± gives the standard deviation. This is a selection; strong and weak results do not stand in their true shares. The uncertainty is large for many entries.
# Tested on: MILI (PIWIL2) piRISC loaded with piRNA #2 (26 nt)
# Experiment: pre-steady-state target cleavage rate (min^-1); MIWI and MILI are mouse PIWI proteins and EfPiwi is from a freshwater sponge; tags in brackets are library labels; higher = faster piRNA-guided slicing of the target
# Conditions: guide: piRNA #2 5'p-UUAGGUAACCCAGUAGAUCCAGAGGA; auxiliary factor: 500 nM mouse GTSF1
# Method in brief: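 The method was Cleave-'n-Seq, in which uncleaved targets from a transcribed, DNA-blocked target RNA library were sequenced after exposure to active affinity-purified piRISC carrying one synthetic guide, with or without GTSF1 partner protein. Reactions contained 0.1 nM library, 1 nM piRISC and, where present, 500 nM GTSF1 in HEPES–potassium acetate buffer at 33 °C for 0–8 or 0–960 min. Reads were normalised to depth and to weakly complementary targets, three trials were pooled, and k3 was capped at 0.0001 min^-1. The pre-steady-state cleavage rate came from a burst-and-steady-state fit.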
row,Sequence,pre-steady-state target cleavage rate
1,CUUAAGGAGACGAUCUACUGGGUUACGUAA,0.00019 ± 0.018
2,CUUAACCUCUGCAUCUACUGGGUUACCAAA,0.173 ± 0.055
3,CUUAAGGUCAGGAUCUACUGGGUUAGCUAA,0.000689 ± 0.024
4,CUUAUCCUCUGGAUGUACUGGGUAACCUAA,0.0198 ± 0.0082
5,CUUAACCACUGGAUCAACUGGGUUACCUAA,0.0515 ± 0.014
6,CUUAAGGAGUGGAUCUACUGGGUUACCGUAA,0.0155 ± 0.0079
7,CUUAAGGAGACCAUCUUGUGGGUUACCUAA,0.000665 ± 0.014
8,CUUAAGGAGUCGAUCAACUGGGUUACCUAA,0.000708 ± 0.016
9,CUUAAGGACUGGAACUACUGCGUUACCUAA,0.00104 ± 0.018
10,CUUAAGGAGAGGUUCUACUGGGUUACCUUA,0.00292 ± 0.0051
11,CUUAAGGAGAGGAUCUAGUGGGUUACCUUA,0.00114 ± 0.0077
12,CUUAAGGAGACCUAUUACUGGGUUACCUAA,0.000121 ± 0.023
13,CUUAAGGAGUGGUCUACUGGGUUACCUAA,0.000653 ± 0.013
14,CUUAUCCUCUGGAUCUACUGCGGUUACCUAA,0.00214 ± 0.0034
15,CUUAAGGAGACCAUCUUCUGGGUUACCUAA,0.00164 ± 0.0064
16,CUUAAGGAGACCUACUACUGGCGUUACCUAA,0.000103 ± 0.055
17,CUUAAGGAGACCUUCAUGUGGGUUACCUAA,0.000445 ± 0.023
18,CUUAAGGAGACGAUCUACUGCGUUACCUUA,0.000511 ± 0.011
19,CUUAAGGAGACCUUCUACUGGGAUACCUAA,0.000674 ± 0.011
20,CUUAAGCUCUGGAUCUACUGGCGUUACCUAA,0.000346 ± 0.013
21,CUUAAGGAGACGAUCUACUGGGUUACCAUA,0.000944 ± 0.0047
22,CUUAAGGAGUGGAUCUUGAGGGUUACCUAA,0.00115 ± 0.0065
23,CUUAAGGAGACCUACUACAGCGUUACCUAA,0.000593 ± 0.0098
24,CUUAAGGAGACGAUCUACUGCCUUACCUAA,0.000198 ± 0.028

row,Sequence,pre-steady-state target cleavage rate
1,CUUAAGGAGAGGAUCUACUGGCAUACCUAA,0.000128 ± 0.038
2,CUUAAGGAGACCUUCUAGCUGGGUUACCUAA,0.000401 ± 0.014
3,CUUAACCUCUGCAUCUACUGGGUUACCUUA,0.178 ± 0.048
4,CUUAAGCUCUGGCAUCUACUGGGUUACCUAA,0.453 ± 0.15
5,CUUAUCCUCUGGAUCUAUGGGUUACCUAA,0.0334 ± 0.0086
6,CUUAUCCUCUGGAUCUACUGGGUUCCCUAA,0.321 ± 0.13
7,CUUAAGGAGUGGAUCUACUGGUGUUACCUAA,0.000326 ± 0.021
8,CUUAAGGUCUGGAUCUUACUGGGUUACCUAA,0.00211 ± 0.0044
9,CUUAAGGACUCGAUCUUCUGGGUUACCUAA,0.00187 ± 0.011
10,CUUAAGGAGACCUACUACGGGGUUACCUAA,0.00105 ± 0.012
11,CUUAAGGAGACCUACUACUGAGUUACCUAA,0.00084 ± 0.0097
12,CUUAAGGAGACCUUCAACUGGGUAACCUAA,0.000101 ± 0.051
13,CUUAAGGUCUGGAUCUACUGGGUUACCUAU [g2:g23:cont:t1U],0.101 ± 0.014
14,CUUAAGGAGACGAUCACUGGGUUACCUAA,0.000337 ± 0.014
15,CUUAAGGAGACCUAGAUGUGGCUUUCCUAA,0.000189 ± 0.03
16,CUUAAGCUCUGGAUCUACUGGGCUUACCUAA,0.019 ± 0.0061
17,CUUAUCCUCUGGACUCUACUGGGUUACCUAA,0.0887 ± 0.019
18,CUUAACCUCUGGAUGUACUCGGUUACCUAA,0.00207 ± 0.0043
19,CUUAAGGAGACCUUCUACUGCGGUUACCUAA,0.00138 ± 0.0066
20,CUUAAGGAGACCUACUACUGUGGUUACCUAA,< 0.0001
21,CUUAAGGAGACCUUCUACUGGGUUAACCUAA,0.000908 ± 0.01
22,CUUAAGGAGACCUAGAUCUGGGAAACCUAA,0.000106 ± 0.066
23,CUUAAGGAGACCAACUACUGGGAUACCUAA,0.000343 ± 0.027
24,CUUAAGGAGACCUAGAUGACGGUUACCGAA,< 0.0001

row,Sequence,pre-steady-state target cleavage rate
1,CUUAAGGAGACCAUCUACUGGGUUAGCUUA,0.000172 ± 0.042
2,CUUAAGGAGAGGAUCAACUGGGUUACCUUA,0.00153 ± 0.006
3,CUUAUCCUCUGGAUCAACAGGGUUACCUAA,0.0724 ± 0.01
4,CUUAAGGUCUGGAUCUACUGGCGUUACCUAA,0.000459 ± 0.011
5,CUUAAGGACUGGAUCUACUGGGAUACCUUA,0.0015 ± 0.015
6,CUUAAGGAGACCUAGAUGACGGUUACCUAU [g2:g10:cont:t1U],0.000107 ± 0.052
7,CUUAUCCUCUGGAUCUAGACGGUUACCUAA,0.00208 ± 0.0054
8,CUUAAGGACUGGAUCUACGGGUUACCUAA,0.001 ± 0.013
9,CUUAAGGAGUGGAUCUUGUGGGUUACCUAA,0.00248 ± 0.0034
10,CUUAAGGAGUGGUUCUACUGGGUAACCUAA,0.00608 ± 0.0068
11,CUUAAGGAGACCAUCUACUGGGCUACCUAA,0.000408 ± 0.035
12,CUUAAGGAGACGAUCUUCUGGGUAACCUAA,0.00194 ± 0.005
13,CUUAUCCUCUCGAUCUACUGGGUUACCAAA,0.13 ± 0.025
14,CUUAAGGAGACCAUCUACCGGGUUACCUAA,0.000828 ± 0.012
15,CUUAAGGAGAGGAUGUACUGGGUUACCUAA,0.00413 ± 0.0059
16,CUUAACCUCUGGUCUACUGGGUUACCUAA,0.333 ± 0.11
17,CUUAACCUCUGGUUCUACUGGGUUACCUUA,0.3 ± 0.087
18,CUUAAGGACGGAUCUACUGGGUUACCUAA,0.0115 ± 0.018
19,CUUAAGGAGACCAUCUACUGGGUUCACCUAA,0.000487 ± 0.022
20,CUUAAGGACUGGAUCUUCUGGGUUUCCUAA,0.00038 ± 0.029
21,CUUAAGGAGACCAUCUACUGGCUUACCUAA,0.000801 ± 0.0081
22,CUUAAGCUCUGGAUCUACUCGGUUACCUUA,0.00122 ± 0.0094
23,CUUAAGGAGACCAUCUACUCGGGUUACCUAA,0.000353 ± 0.026
24,CUUAAGGAGAGGAUCAACUGGGUUUCCUAA,0.000999 ± 0.006

# Retrieved one by one from the list above, two records:
row,Sequence,pre-steady-state target cleavage rate
16,CUUAACCUCUGGUCUACUGGGUUACCUAA,0.333 ± 0.11
12,CUUAAGGAGACGAUCUUCUGGGUAACCUAA,0.00194 ± 0.005
